Reference: patent US20240218065A1
No constants are given. Whether binding was seen depends on the method and setting. Some results given as binding are weak or reduced against the parent protein; the word gives no strength. For some assays here: Where a sequence is shown, tags or fusion partners need not be part of it.

By UniProt entry, the sequences of proteins in these tests, tags left out. Residues count along the entry.
UniProt O14931, residues 19-138: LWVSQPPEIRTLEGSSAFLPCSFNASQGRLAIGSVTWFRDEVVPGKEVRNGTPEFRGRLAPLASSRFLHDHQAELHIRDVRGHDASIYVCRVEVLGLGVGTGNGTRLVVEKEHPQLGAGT

T1: Human-CD24-His (Acro, cat: CD4-H5254) (human) (UniProt P25063)
T1 sequence (looked up): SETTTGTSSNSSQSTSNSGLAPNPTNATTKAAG


Assays:
[1] = target: Human-NKP30-His (Kactus, cat: NKP-HM430) (human) (UniProt O14931); assay: ELISA, Human-NKP30-His coated, anti-human IgG-Fc HRP
[2] = target: Human-NKP30-His (Kactus, cat: NKP-HM430) (human) (UniProt O14931); assay: ELISA: Human-NKP30-His coated, antibody titrated 3-fold from 10 µg/mL, HRP goat anti-human IgG-Fc, OD450-OD570
[3] = target: Human-NKP30-His (Kactus, cat: NKP-HM430) (human) (UniProt O14931); assay: ELISA: Human-NKP30-His coated at 0.2 µg/mL, antibody titrated 3-fold from 10 µg/mL (7 points), HRP goat anti-human IgG-Fc, OD450-OD570
[4] = target: T1, Human-CD24-His (Acro, cat: CD4-H5254) (human); assay: ELISA, Human-CD24-His coated, anti-human IgG-Fc HRP
[5] = target: T1, Human-CD24-His (Acro, cat: CD4-H5254) (human); assay: ELISA: Human-CD24-His coated at 0.2 µg/mL, antibody titrated 3-fold (7 points), HRP goat anti-human IgG-Fc, OD450-OD570

binding [1] | binding [2] | binding [3] | binding [4] | binding [5] | Binder
binds | binds | binds | – | – | NKP30 humanized antibody (antibody, V domains shown) VH: EVQLVESGGGLVQPGGSLRLSCAASGITFSRSVMGWFRQAPGKLRELVAGITSDDNTDYADSVKGRFTISRDNSKNTLYLQMNSLRAEDTAVYYCNILPDSRLGWGQGTLVTVSS
– | – | – | binds | binds | CD24 monoclonal antibody (antibody, human IgG1, kappa, V domains shown) VH: QVQLVQSGSELKKPGASVKVSCKASGYIFTDYAIHWVRQAPGQGLEWMGFINTATGEPTYADDFKGRFVFSLDTSVSTAYLQISSLKAEDTAVYFCTSGVHWGQGTLVTVSS VL: DIQMTQSPSTLSASVGDRVTITCSASSSVSSMHWYQQKPGKAPKLLIYSTSNLASGVPSRFSGSGSGTEYTLTISSLQPDDFATYYCHHWTSYMYTFGGGTKVEIKR
